# Assay results reported in the supplement of paper PMC8728848.
# The other results are listed elsewhere or left out.
# B1: Clec18A (Homo sapiens) (protein)
# chain: PFHTCDLRIDGDCFMVSSEADTYYRARMKCQRKGGVLAQIKRQKVQDILAFYLGRLETTNEVIDSDFETRNFWIGLTYKTAKDSFRWATGEHQAFTSFAFGQPDNHGFGNCVELQASAAFNWNDQRCKTRNRYICQ
# Legend:
# Experiment in all cases: glycan array binding signal (z-score within array); higher = stronger binding
# Conditions in all cases: glycan notation: IUPAC condensed, linker removed
# [1] = target: Fuc(a1-2)[Gal(a1-3)]Gal(b1-4)GlcNAc(b1-2)Man(a1-3)[Fuc(a1-2)[Gal(a1-3)]Gal(b1-4)GlcNAc(b1-2)Man(a1-6)]Man(b1-4)GlcNAc(b1-4)[Fuc(a1-6)]GlcNAc
# Outline: (§1)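 The Consortium for Functional Glycomics database supplied 3228 glycan arrays, of which those lacking an available protein sequence were dropped. The binding signal, a within-array Z-score, was averaged across arrays of the same protein sequence and across linkers. Negative scores can be read as non-binding.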
# [2] = target: Fuc(a1-2)[Gal(a1-3)]Gal(b1-4)GlcNAc(b1-3)GalNAc
# Outline: as §1
# [3] = target: Fuc(a1-2)[Gal(a1-3)]Gal(b1-4)GlcNAc(b1-3)[Fuc(a1-2)[Gal(a1-3)]Gal(b1-4)GlcNAc(b1-6)]GalNAc
# Outline: as §1
# [4] = target: Fuc(a1-2)[Gal(a1-3)]Gal(b1-4)GlcNAc(b1-6)GalNAc
# Outline: as §1
# [5] = target: Fuc(a1-2)[Gal(a1-3)]Gal(b1-4)[Fuc(a1-3)]Glc
# Outline: as §1
# [6] = target: Fuc(a1-2)[Gal(a1-3)]Gal(b1-4)[Fuc(a1-3)]GlcNAc
# Outline: as §1
# [7] = target: Fuc(a1-2)[Gal(a1-3)]Gal(b1-4)[Fuc(a1-3)]GlcNAc(b1-3)GalNAc
# Outline: as §1
# [8] = target: Fuc(a1-2)[Gal(a1-4)]Gal(b1-4)GlcNAc
# Outline: as §1
# [9] = target: Fuc(a1-2)[GalNAc(a1-3)]Gal
# Outline: as §1
# [10] = target: Fuc(a1-2)[GalNAc(a1-3)]Gal(b1-3)GalNAc(a1-3)[Fuc(a1-2)]Gal(b1-4)GlcNAc
# Outline: as §1
# [11] = target: Fuc(a1-2)[GalNAc(a1-3)]Gal(b1-3)GalNAc(b1-3)Gal(a1-4)Gal(b1-4)Glc
# Outline: as §1
# [12] = target: Fuc(a1-2)[GalNAc(a1-3)]Gal(b1-3)GlcNAc
# Outline: as §1
# [13] = target: Fuc(a1-2)[GalNAc(a1-3)]Gal(b1-3)GlcNAc(b1-2)Man(a1-3)[Fuc(a1-2)[GalNAc(a1-3)]Gal(b1-3)GlcNAc(b1-2)Man(a1-6)]Man(b1-4)GlcNAc(b1-4)GlcNAc
# Outline: as §1
# [14] = target: Fuc(a1-2)[GalNAc(a1-3)]Gal(b1-3)GlcNAc(b1-2)Man(a1-3)[Fuc(a1-2)[GalNAc(a1-3)]Gal(b1-3)GlcNAc(b1-2)Man(a1-6)]Man(b1-4)GlcNAc(b1-4)[Fuc(a1-6)]GlcNAc
# Outline: as §1
# [15] = target: Fuc(a1-2)[GalNAc(a1-3)]Gal(b1-3)GlcNAc(b1-3)GalNAc
# Outline: as §1
# [16] = target: Fuc(a1-2)[GalNAc(a1-3)]Gal(b1-3)GlcNAc(b1-6)GalNAc
# Outline: as §1
# [17] = target: Fuc(a1-2)[GalNAc(a1-3)]Gal(b1-4)Glc
# Outline: as §1
# [18] = target: Fuc(a1-2)[GalNAc(a1-3)]Gal(b1-4)GlcNAc
# Outline: as §1
# [19] = target: Fuc(a1-2)[GalNAc(a1-3)]Gal(b1-4)GlcNAc(b1-2)Man
# Outline: as §1
# [20] = target: Fuc(a1-2)[GalNAc(a1-3)]Gal(b1-4)GlcNAc(b1-2)Man(a1-3)[Fuc(a1-2)[GalNAc(a1-3)]Gal(b1-4)GlcNAc(b1-2)Man(a1-6)]Man(b1-4)GlcNAc(b1-4)GlcNAc
# Outline: as §1
# [21] = target: Fuc(a1-2)[GalNAc(a1-3)]Gal(b1-4)GlcNAc(b1-2)Man(a1-3)[Fuc(a1-2)[GalNAc(a1-3)]Gal(b1-4)GlcNAc(b1-2)Man(a1-6)]Man(b1-4)GlcNAc(b1-4)[Fuc(a1-6)]GlcNAc
# Outline: as §1
# [22] = target: Fuc(a1-2)[GalNAc(a1-3)]Gal(b1-4)GlcNAc(b1-3)Gal(b1-4)GlcNAc
# Outline: as §1
# [23] = target: Fuc(a1-2)[GalNAc(a1-3)]Gal(b1-4)GlcNAc(b1-3)Gal(b1-4)GlcNAc(b1-3)Gal(b1-4)GlcNAc
# Outline: as §1
# [24] = target: Fuc(a1-2)[GalNAc(a1-3)]Gal(b1-4)GlcNAc(b1-3)GalNAc
# Outline: as §1
# [25] = target: Fuc(a1-2)[GalNAc(a1-3)]Gal(b1-4)GlcNAc(b1-3)[Fuc(a1-2)[GalNAc(a1-3)]Gal(b1-4)GlcNAc(b1-6)]GalNAc
# Outline: as §1
# [26] = target: Fuc(a1-2)[GalNAc(a1-3)]Gal(b1-4)GlcNAc(b1-6)GalNAc
# Outline: as §1
# [27] = target: Fuc(a1-2)[GalNAc(a1-3)]Gal(b1-4)[Fuc(a1-3)]GlcNAc
# Outline: as §1
# [28] = target: Fuc(a1-2)[GalNAc(a1-3)]Gal(b1-4)[Fuc(a1-3)]GlcNAc(b1-3)GalNAc
# Outline: as §1
# [29] = target: Fuc(a1-2)[GalNAc(a1-4)]Gal(b1-4)GlcNAc
# Outline: as §1
# [30] = target: Fuc(a1-2)[GalNAc(b1-3)]Gal
# Outline: as §1
# [31] = target: Fuc(a1-3)GlcNAc
# Outline: as §1
# [32] = target: Fuc(a1-3)[Gal(b1-4)]Glc6S
# Outline: as §1
# [33] = target: Fuc(a1-3)[Gal(b1-4)]GlcNAc
# Outline: as §1
# [34] = target: Fuc(a1-3)[Gal(b1-4)]GlcNAc(b1-2)Man
# Outline: as §1
# [35] = target: Fuc(a1-3)[Gal(b1-4)]GlcNAc(b1-2)Man(a1-3)[Fuc(a1-3)[Gal(b1-4)]GlcNAc(b1-2)Man(a1-6)]Man(b1-4)GlcNAc(b1-4)GlcNAc
# Outline: as §1
# [36] = target: Fuc(a1-3)[Gal(b1-4)]GlcNAc(b1-2)Man(a1-3)[Fuc(a1-3)[Gal(b1-4)]GlcNAc(b1-2)Man(a1-6)]Man(b1-4)GlcNAc(b1-4)[Fuc(a1-6)]GlcNAc
# Outline: as §1
# [37] = target: Fuc(a1-3)[Gal(b1-4)]GlcNAc(b1-3)Gal(b1-3)[Fuc(a1-4)]GlcNAc
# Outline: as §1
# [38] = target: Fuc(a1-3)[Gal(b1-4)]GlcNAc(b1-3)Gal(b1-4)[Fuc(a1-3)]GlcNAc
# Outline: as §1
# [39] = target: Fuc(a1-3)[Gal(b1-4)]GlcNAc(b1-3)Gal(b1-4)[Fuc(a1-3)]GlcNAc(b1-3)Gal(b1-4)[Fuc(a1-3)]GlcNAc
# Outline: as §1
# [40] = target: Fuc(a1-3)[Gal(b1-4)]GlcNAc(b1-3)GalNAc
# Outline: as §1
# [41] = target: Fuc(a1-3)[Gal(b1-4)]GlcNAc(b1-6)GalNAc
# Outline: as §1
# [42] = target: Fuc(a1-3)[Gal(b1-4)]GlcNAc(b1-6)[Gal(b1-3)GlcNAc(b1-3)]Gal(b1-4)Glc
# Outline: as §1
# [43] = target: Fuc(a1-3)[Gal(b1-4)]GlcNAc6S
# Outline: as §1
# [44] = target: Fuc(a1-3)[Gal3S(b1-4)]Glc
# Outline: as §1
# [45] = target: Fuc(a1-3)[Gal3S(b1-4)]GlcNAc
# Outline: as §1
binder,measurement,setting,value
B1,glycan array binding signal (z-score),[1],-0.426
same,glycan array binding signal (z-score),[2],0.207
same,glycan array binding signal (z-score),[3],-0.697
same,glycan array binding signal (z-score),[4],-0.183
same,glycan array binding signal (z-score),[5],-0.915
same,glycan array binding signal (z-score),[6],-0.456
same,glycan array binding signal (z-score),[7],-0.039
same,glycan array binding signal (z-score),[8],-0.801
same,glycan array binding signal (z-score),[9],0.557
same,glycan array binding signal (z-score),[10],0.205
same,glycan array binding signal (z-score),[11],-0.845
same,glycan array binding signal (z-score),[12],-0.377
same,glycan array binding signal (z-score),[13],-0.538
same,glycan array binding signal (z-score),[14],0.059
same,glycan array binding signal (z-score),[15],-0.79
same,glycan array binding signal (z-score),[16],-0.729
same,glycan array binding signal (z-score),[17],-0.549
same,glycan array binding signal (z-score),[18],-0.156
same,glycan array binding signal (z-score),[19],-0.346
same,glycan array binding signal (z-score),[20],4.62
same,glycan array binding signal (z-score),[21],-0.644
same,glycan array binding signal (z-score),[22],-0.808
same,glycan array binding signal (z-score),[23],-0.814
same,glycan array binding signal (z-score),[24],0.596
same,glycan array binding signal (z-score),[25],0.135
same,glycan array binding signal (z-score),[26],-0.523
same,glycan array binding signal (z-score),[27],-0.083
same,glycan array binding signal (z-score),[28],-0.08
same,glycan array binding signal (z-score),[29],0.698
same,glycan array binding signal (z-score),[30],1.09
same,glycan array binding signal (z-score),[31],-0.783
same,glycan array binding signal (z-score),[32],0.584
same,glycan array binding signal (z-score),[33],-0.361
same,glycan array binding signal (z-score),[34],-0.329
same,glycan array binding signal (z-score),[35],-0.573
same,glycan array binding signal (z-score),[36],1.33
same,glycan array binding signal (z-score),[37],0.071
same,glycan array binding signal (z-score),[38],0.611
same,glycan array binding signal (z-score),[39],-0.768
same,glycan array binding signal (z-score),[40],-0.458
same,glycan array binding signal (z-score),[41],-0.667
same,glycan array binding signal (z-score),[42],-0.392
same,glycan array binding signal (z-score),[43],0.42
same,glycan array binding signal (z-score),[44],-0.058
same,glycan array binding signal (z-score),[45],0.178
